Measured values from article PMC4194125.
These are yes or no findings as the source states them, for the method shown. In cells and extracts the contact can be indirect. Some results given as binding are weak or reduced against the parent protein; the word gives no strength.

Sequences of proteins named here, by UniProt entry; tags and fusion partners are left off.
UniProt P49407: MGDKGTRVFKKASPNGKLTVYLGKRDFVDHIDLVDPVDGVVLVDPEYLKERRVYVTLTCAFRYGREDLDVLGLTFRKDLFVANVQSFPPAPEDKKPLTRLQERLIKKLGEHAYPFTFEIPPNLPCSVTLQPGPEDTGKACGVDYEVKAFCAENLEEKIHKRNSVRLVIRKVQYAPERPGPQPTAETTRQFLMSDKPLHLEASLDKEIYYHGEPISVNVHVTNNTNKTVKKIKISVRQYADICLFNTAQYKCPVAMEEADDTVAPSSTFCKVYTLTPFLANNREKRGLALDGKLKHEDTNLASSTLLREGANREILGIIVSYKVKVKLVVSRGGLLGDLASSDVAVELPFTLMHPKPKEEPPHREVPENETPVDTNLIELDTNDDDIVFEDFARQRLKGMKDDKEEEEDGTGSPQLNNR
UniProt Q16665: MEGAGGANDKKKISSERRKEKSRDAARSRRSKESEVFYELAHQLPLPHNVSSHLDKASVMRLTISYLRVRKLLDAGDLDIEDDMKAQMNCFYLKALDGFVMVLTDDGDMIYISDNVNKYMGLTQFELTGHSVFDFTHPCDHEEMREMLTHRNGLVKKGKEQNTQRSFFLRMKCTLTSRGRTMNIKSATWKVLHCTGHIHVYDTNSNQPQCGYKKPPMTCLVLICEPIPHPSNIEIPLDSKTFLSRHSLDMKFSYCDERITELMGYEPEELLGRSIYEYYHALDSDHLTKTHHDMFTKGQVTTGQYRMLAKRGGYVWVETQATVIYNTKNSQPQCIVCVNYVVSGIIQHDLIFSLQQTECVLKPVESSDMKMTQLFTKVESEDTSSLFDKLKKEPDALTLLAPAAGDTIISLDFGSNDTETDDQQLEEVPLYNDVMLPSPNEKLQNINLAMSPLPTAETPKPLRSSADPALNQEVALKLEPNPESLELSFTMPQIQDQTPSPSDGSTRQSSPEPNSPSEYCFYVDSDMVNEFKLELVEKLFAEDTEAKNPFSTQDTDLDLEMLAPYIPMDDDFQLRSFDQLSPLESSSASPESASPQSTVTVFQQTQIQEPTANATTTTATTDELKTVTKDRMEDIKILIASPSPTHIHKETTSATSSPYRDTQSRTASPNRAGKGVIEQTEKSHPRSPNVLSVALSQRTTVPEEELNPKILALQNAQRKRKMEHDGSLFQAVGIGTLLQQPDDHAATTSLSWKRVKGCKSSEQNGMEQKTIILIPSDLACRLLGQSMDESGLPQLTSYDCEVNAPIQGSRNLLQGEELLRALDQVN

Target: Beta-arrestin1 (human (endogenous in C4-2)) (UniProt P49407)
Assay: co-IP; nuclear extracts of hypoxia-treated C4-2 cells expressing endogenous levels of ARRB1

binding: binds
Substance: Hypoxia-inducible factor 1A (from UniProt Q16665 1-826)
